Reference: paper PMC11165011
No constants are given. Whether binding was seen depends on the method and setting. In cells and extracts the contact can be indirect. Some binding calls cover weakened binding; strength is not graded here. For part of these data: Sequences can lack the tags named with a protein.

Sequences of proteins named here, by UniProt entry; tags and fusion partners are left off. Residues count along the entry.
UniProt P40763: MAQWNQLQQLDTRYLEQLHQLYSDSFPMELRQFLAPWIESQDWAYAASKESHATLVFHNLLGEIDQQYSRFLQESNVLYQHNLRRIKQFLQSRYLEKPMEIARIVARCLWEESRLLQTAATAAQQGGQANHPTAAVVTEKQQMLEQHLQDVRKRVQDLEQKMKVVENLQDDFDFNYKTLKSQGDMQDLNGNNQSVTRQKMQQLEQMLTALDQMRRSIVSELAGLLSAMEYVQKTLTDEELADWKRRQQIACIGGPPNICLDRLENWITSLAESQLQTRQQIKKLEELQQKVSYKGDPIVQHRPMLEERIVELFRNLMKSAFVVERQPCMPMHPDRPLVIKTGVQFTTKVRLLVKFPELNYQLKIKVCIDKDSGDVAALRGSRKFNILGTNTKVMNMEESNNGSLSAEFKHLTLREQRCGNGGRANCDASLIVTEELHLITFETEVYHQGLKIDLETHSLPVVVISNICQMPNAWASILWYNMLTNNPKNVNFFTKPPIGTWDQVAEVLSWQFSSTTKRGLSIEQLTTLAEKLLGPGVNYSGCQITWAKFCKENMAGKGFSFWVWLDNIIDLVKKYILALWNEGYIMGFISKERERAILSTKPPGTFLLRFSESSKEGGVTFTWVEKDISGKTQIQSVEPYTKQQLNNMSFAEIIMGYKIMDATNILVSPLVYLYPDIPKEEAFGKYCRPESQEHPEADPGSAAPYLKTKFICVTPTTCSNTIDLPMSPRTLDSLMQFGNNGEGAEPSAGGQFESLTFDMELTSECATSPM
UniProt P08246, residues 30-267: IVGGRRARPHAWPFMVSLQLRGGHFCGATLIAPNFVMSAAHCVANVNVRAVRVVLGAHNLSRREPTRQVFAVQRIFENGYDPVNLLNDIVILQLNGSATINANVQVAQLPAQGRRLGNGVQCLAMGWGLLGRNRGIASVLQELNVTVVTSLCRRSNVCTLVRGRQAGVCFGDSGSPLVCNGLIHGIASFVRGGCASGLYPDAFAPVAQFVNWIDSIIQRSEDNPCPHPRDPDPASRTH

Key:
[1] = target: T1, HA-tagged PRTN3 (Proteinase 3), full length (human) (UniProt P24158); assay: co-IP; HEK293T cells co-transfected with Flag-STAT3 and HA-PRTN3; lysates precipitated with anti-Flag or anti-HA overnight at 4 °C, protein A/G agarose; immunoblot
T1 sequence: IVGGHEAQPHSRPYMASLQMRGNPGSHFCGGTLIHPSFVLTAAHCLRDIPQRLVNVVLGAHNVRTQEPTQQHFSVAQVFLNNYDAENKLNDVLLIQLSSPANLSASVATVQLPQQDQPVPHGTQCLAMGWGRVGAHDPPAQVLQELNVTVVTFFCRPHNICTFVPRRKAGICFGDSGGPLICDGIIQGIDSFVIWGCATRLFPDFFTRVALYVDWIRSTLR

[2] = target: T2, PRTN3, endogenous in human primary CD34+ cells (human (endogenous in primary CD34+ cells)) (UniProt P24158); assay: co-IP; lysates of human primary CD34+ cells from cord blood, endogenous proteins; anti-STAT3 or anti-PRTN3; immunoblot
T2 sequence: T1 sequence

[3] = target: STAT3, endogenous in HL60 cells (human (endogenous in HL60)) (UniProt P40763); assay: co-IP; HL60 cell lysates, endogenous proteins; STAT3 antibody added for immunoprecipitation, anti-NE and anti-CatG antibodies

Flag-tagged STAT3 (1-770) (from UniProt P40763 1-770)
binding [1]: binds

STAT3, endogenous in human primary CD34+ cells (from UniProt P40763 1-770)
binding [2]: binds

neutrophil elastase (NE), endogenous in HL60 cells (from UniProt P08246 30-267) (enzyme)
binding [3]: no binding
